# Results as given in publication PMC7819943, “Rice protein-binding microarrays: a tool to detect cis-acting elements near promoter regions in rice”.
# Chains of the proteins cited; added tags and fusions are not shown.
# UniProt Q0JBA9, entry or part of it: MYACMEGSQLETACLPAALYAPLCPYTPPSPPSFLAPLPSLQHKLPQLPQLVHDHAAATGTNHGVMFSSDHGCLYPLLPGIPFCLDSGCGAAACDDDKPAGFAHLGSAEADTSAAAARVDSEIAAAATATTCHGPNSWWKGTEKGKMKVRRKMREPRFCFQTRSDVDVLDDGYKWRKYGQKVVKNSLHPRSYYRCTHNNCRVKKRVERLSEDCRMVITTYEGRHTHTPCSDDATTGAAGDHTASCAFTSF
# Some of the results follow.
# Molecular target: OsWRKY34 (Oryza sativa, UniProt Q0JBA9 1-250)
# Experiment: protein-binding microarray (RPBM); PBS, 2% BSA, 51.3 ng/ul salmon testes DNA, 50 uM zinc acetate, 200 nM TF, 25 C, 1 h; high values mean tight binding
# Settings: protein: recombinant; tags: N-terminal polyhistidine and DsRed monomer fusion (pET32a); label: CyDye5-dUTP incorporated in the synthesized complementary strand; 3' TTTTT single-stranded linker to array surface; dsDNA, one strand shown
# In short: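 Binding signal is defined as the fluorescence intensity of each feature in arbitrary units, read on an Axon 4000B scanner. Transcription factors with N-terminal polyhistidine and DsRed fusions came from E. coli BL21-CodonPlus and were purified on Ni–NTA. They were incubated at 200 nM for 1 h at 25 °C on a custom Agilent array that had been made double-stranded with Cy5-dUTP, with 50 µM zinc acetate present, and the array was washed.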
row,Sequence,binding signal
1,CTCTCACTCCCGAACGCAGACTAAGTCGCTTTTACTTTTTCGGAGTCACCTAGTGCAG,8240 fluorescence intensity (a.u.)
2,TTGGTACTCACATCCACGCCACCTACTAATAACTAGTTAACGGAGTCACCTAGTGCAG,8560 fluorescence intensity (a.u.)
3,GCGCCGAGGTCATTAGGCTTGACAGTCGACACCAATTACGCGGAGTCACCTAGTGCAG,9160 fluorescence intensity (a.u.)
4,CAGCCTTATCATGTTACATTTTCAACTGCATTATTGTGTTCGGAGTCACCTAGTGCAG,9670 fluorescence intensity (a.u.)
5,TTATAAATTTGTAACCCACTGTTTTTCTCATTTCTCTTTTCGGAGTCACCTAGTGCAG,9790 fluorescence intensity (a.u.)
6,ATCATGCTAATTACTCATAACTTAAGTCACAACACTTTGTCGGAGTCACCTAGTGCAG,9930 fluorescence intensity (a.u.)
7,ACCGATGCCGACGTGCCATCCCTTTGTATCATTTCATTTCCGGAGTCACCTAGTGCAG,10800 fluorescence intensity (a.u.)
8,TAAATATTAATTTTTCGTGCGGCCGTTAATTTGCCGTCAACGGAGTCACCTAGTGCAG,9170 fluorescence intensity (a.u.)
9,AGTTGTAATGTTGTTTCCTGTCTTCCATCTTGATTAATGTCGGAGTCACCTAGTGCAG,9180 fluorescence intensity (a.u.)
10,ACCGAATATACATTTGTCCGTATCCGGTCCTCTCCAACCTCGGAGTCACCTAGTGCAG,8720 fluorescence intensity (a.u.)
11,TTCAATCTGTTGACCCTCGATATTTCATACGCGCGTGATACGGAGTCACCTAGTGCAG,8670 fluorescence intensity (a.u.)
12,TCTGCTACACGGCCGGTCTACCTCCGTCCTGCTTCTGGTTCGGAGTCACCTAGTGCAG,9120 fluorescence intensity (a.u.)
13,TAGACTATAAACCAAACACATACTCTCTTCGTTTCATATTCGGAGTCACCTAGTGCAG,8420 fluorescence intensity (a.u.)
14,AGTTACCTTCTCTGCTTCAGATCACGTGTGCCACGTGTCCCGGAGTCACCTAGTGCAG,8390 fluorescence intensity (a.u.)
15,GTATGTGTGTCTGGATTATTCCATAGTAGGATTTGCTAATCGGAGTCACCTAGTGCAG,8380 fluorescence intensity (a.u.)
16,AGCCACTCCAGATCCAAAGACAACACCAGCAAGCAGCATTCGGAGTCACCTAGTGCAG,8240 fluorescence intensity (a.u.)
17,TCGTCTTATCTCATACTTACGTAGTTGCGTTTTCATATAACGGAGTCACCTAGTGCAG,8520 fluorescence intensity (a.u.)
18,ACCAGCCAGCACCGCCTCTATAAATACATACATGTTGCCACGGAGTCACCTAGTGCAG,8710 fluorescence intensity (a.u.)
19,GTAGCAACATGCCGCATCTTCTTTTTTCGCTTATGTTTATCGGAGTCACCTAGTGCAG,14100 fluorescence intensity (a.u.)
20,CCACCGCAAGTCTGCCGTGGTCACCGCGCCTTTTACTTTACGGAGTCACCTAGTGCAG,8450 fluorescence intensity (a.u.)
21,TTTCTACTTTACTTCCTGTTCTTCACTATGTTTCAGAGATCGGAGTCACCTAGTGCAG,8790 fluorescence intensity (a.u.)
22,CTGTTATGTTTGTTCCATTTGGAGCCTTGGCTGTTCATCCCGGAGTCACCTAGTGCAG,9260 fluorescence intensity (a.u.)
23,TGGAGTCCCTGCCGCCCATACTCTCCGCCCGCGCGATCCCCGGAGTCACCTAGTGCAG,10400 fluorescence intensity (a.u.)

# Nos. 8 to 9 from above:
row,Sequence,binding signal
8,TAAATATTAATTTTTCGTGCGGCCGTTAATTTGCCGTCAACGGAGTCACCTAGTGCAG,9170 fluorescence intensity (a.u.)
9,AGTTGTAATGTTGTTTCCTGTCTTCCATCTTGATTAATGTCGGAGTCACCTAGTGCAG,9180 fluorescence intensity (a.u.)
